Measurements reported in the supplement of paper PMC5949888.
Most values lie at the floor of the assay. Slopes are relative: functional sequences can read slightly below zero.

System: Saccharomyces cerevisiae PS128 hsf1 delta, HSF1(1-493) fusion
Test: growth estimate (transactivation domain function in HSF1 fusion, heat-shock survival) (a.u. (slope of normalised read count over time)); higher = stronger growth at 37°C, i.e. more transactivation activity
Conditions: library: random library

Substance | growth estimate
SLALRNRSIGHTGYLPLPEV | < -0.25
PESYHDNNGNHAAPS | < -0.25
AAATDSFMRKPKLTLQTTRL | < -0.25
YGVQYCTPS | < -0.25
AKVIVRLRSLGVHIGTGVRR | < -0.25
SFTR | < -0.25
NWFEPR | < -0.25
AQVYKICPPRGVCM | < -0.25
RVKLDSYLVPVDYVNVVRQG | < -0.25
HGS | < -0.25
LYLRMRYTLGSASREPLNSQ | < -0.25
ASRAFAGPLLTD | < -0.25
TVSQSHGYPCETQVGLRPLP | -0.243
LRENGQ | < -0.25
RAWNRRLSDVRRLK | < -0.25
PLLIRDVQDHFKSTPKPLNL | < -0.25
IGVRVAARAGRQHQVSVHTA | < -0.25
YMKRSKSGNWDVLWLYILET | < -0.25
VGLDLQVNSTRHPHLEGTSN | < -0.25
VSDPSPEGRKRFQLVKKPVS | < -0.25
SYFELSVRGSDNTSNICYPG | < -0.25
ASTRLPPTKSVPPWA | < -0.25
YYPLGLRLEDACSTGNTSQV | < -0.25

Substance | growth estimate
DVYPCLICH | < -0.25
GRILRYAIMVSRGNLSSKRP | < -0.25
ADRTPLGISDHHRTLLVGDG | < -0.25
VIRCRVPCGNGAVSRQVDSI | < -0.25
DRRESITGGSPVWSGSIARP | < -0.25
VYPVGR | < -0.25
LGRRMI | < -0.25
NLGYNLGIKRIRVAELEYPR | < -0.25
PERPRGCTPLTAR | < -0.25
PGQYFIRGVV | < -0.25
FDIGGESVRACTSGSLVLAS | < -0.25
PSFRPFGSDTRRRVIYLKAQ | < -0.25
SYTDNKSWSLSSHREYLDCN | -0.248
NRRKPDSINPLLTVAQNRHG | < -0.25
NPR | < -0.25
LGRFASSRPSSADDGVLRHR | < -0.25
ADRPEHVLESVGIQLQCRRR | < -0.25
GCTRLLGDF | < -0.25
IMKITYFLGCDS | < -0.25
WVSGLGQRERVRTAINCEQK | < -0.25
GVWDAEHTRA | < -0.25
LGVV | < -0.25
LRHGQGLRMTQAWFCRLFPK | < -0.25

Shown comma-delimited: entries from further up.
Substance,growth estimate
AQVYKICPPRGVCM,< -0.25
VYPVGR,< -0.25
PERPRGCTPLTAR,< -0.25

(listing goes on)

Substance | growth estimate
LLLRSLKSKIRPYKGGRFHP | < -0.25
TRCLG | < -0.25
GRSRGSNKTVSAGQGKGMAQ | < -0.25
SER | < -0.25
TWLSANTSRLRDTVRVWALE | < -0.25
YKCSG | < -0.25
PNKGDPHS | < -0.25
SVLHGNRTFQILGLSSP | < -0.25
WWSSSAGLPNGTHSSTIGHG | < -0.25
SPSCRAIGSREPKGKL | < -0.25
TSGNGLAFDG | < -0.25
SPSRRCRDNSWSHQELELCR | < -0.25
TMSYSERN | < -0.25
LGVSSSRLHTNHMDPPKKPR | < -0.25
PEWYLSHGGLVRGGP | < -0.25
VCTLVRILAKSDGRQFPHVT | < -0.25
LGNELAITLTEHCH | < -0.25
VWIVHECLRP | -0.245
KPGR | < -0.25
AFGITFNRPHIPKTSSHLIV | < -0.25
WVTSGAPRGGRNTGQSVPSS | < -0.25
GLTCIYVASIVN | < -0.25
RVDLDVDKKGLSKNQAQPGP | < -0.25

Substance | growth estimate
CPKPGETRS | < -0.25
TLSP | < -0.253
LASETVRWRCF | < -0.25
HAVPPGLSL | < -0.25
LHSRHPRHSTI | < -0.25
RLIGV | < -0.25
GFNRQVPCCATV | < -0.25
VMSC | < -0.25
SAPAGLLSIRKSQNGILQST | < -0.25
FGLWIKMGRAGHIARRQSLG | < -0.25
LFLTPARPTVSD | < -0.25
PVTRVRVRLLLDQPRYRPDP | < -0.25
CGST | -0.246
NSSISFTWLLVV | < -0.25
SHTEGTGSGNQAGGSGLYMQ | < -0.25
EGGLRANLTRACSPGFLSMS | < -0.25
IDEYT | < -0.25
STTCTSYER | < -0.25
LFYLYPHETGDPSVLSAHLW | < -0.25
RSKEINVQLSWRDNTYALLV | < -0.25
CPRLELWAARGLEPPVPLRL | < -0.25
ARRGAGRARGGPRRDVCFMS | < -0.25
FVGQHVARATSAVPVLKWAY | < -0.25

Random excerpt: 5 records from the list
Substance | growth estimate
SPSCRAIGSREPKGKL | < -0.25
RSKEINVQLSWRDNTYALLV | < -0.25
WVSGLGQRERVRTAINCEQK | < -0.25
IGVRVAARAGRQHQVSVHTA | < -0.25
AAATDSFMRKPKLTLQTTRL | < -0.25

The listing continues.

Substance | growth estimate
SARGGNAFRLRSYLLR | < -0.25
PMIRSPRRCIILREASMSVR | < -0.25
YRGRSYAVLNYWWYDRVARR | < -0.25
IVTPGIIRVVENQPCSNSSE | < -0.25
GGGRRRLGVFICHNGMSSVK | < -0.25
NRARHDRC | < -0.25
YGPLQRRSLGLTLLITGL | < -0.25
NSTLISAHETPSDLKCMQCK | < -0.25
PSMPLSGAWRGRWTAAGKSF | < -0.25
GCR | < -0.25
QNQ | < -0.25
IYRRLTA | < -0.25
LSTVF | < -0.25
EFRVLEEWPRFSEWHKLWDS | 0.0862
VRPWSL | < -0.25
KEKVWSGTFTLRRTSYVKIG | -0.246
VICSKFPAKRSTCDYLVFLG | < -0.25
PVTNGVKGGLRVMRIDYRDS | < -0.25
FNTEFSGKNKWA | < -0.25
HPKGKPPRHRNQGAGPRQSG | < -0.25
LGLPGTQTSTVDASDRPIGS | < -0.25
RPQYRGLNILLT | < -0.25
IYPRITLGSRPD | < -0.25

Substance | growth estimate
LNDPAGTPRRRLET | < -0.25
HRSTAH | < -0.25
ASSAIFEPGRLLRLARSTVC | < -0.25
VRGRRPIGGVA | -0.0379
DSRD | < -0.25
CVTLCMLPVDYIRPPTNIRD | < -0.25
LSVVLPPHLIGAIKGIRDGT | < -0.25
NAFPG | < -0.25
RMNTRFIP | -0.203
RLPSVKAEGTVRYN | < -0.25
ARWDTLSIGIASRRTCRLAD | < -0.25
QPG | < -0.25
GYTSARGSKRTLMYALDSKD | < -0.25
PRVLSVLR | < -0.25
KLHEIGRVSLAVSLIA | < -0.25
RSPDARK | < -0.25
SILRASRTGTAGGLRSDAMR | < -0.25
PTFVRECPRP | < -0.25
KEWPALWSQAIRLVPRHAPW | < -0.25
LWVMKARAKCQTHGRSGSET | < -0.25
PQVVRGGVSAPVLSETWKTS | < -0.25
ALCICSHWNVLSYGLSSYSN | < -0.25
QVSSDIQDPPPPRS | < -0.25

Substance | growth estimate
SSDVVP | < -0.25
YPERLLLLYYQLFTTPNTMQ | < -0.25
WFGLQARHCKPYRWPIWAPT | < -0.25
TSN | < -0.25
VGKPVVPVSTGVAITRMGHD | < -0.25
SCQDLCLRHTSHETGPRTMN | < -0.25
AAVCSVNL | < -0.25
AVRSFLLHTDYS | < -0.25
QLDGRLISPIPVGIINAS | < -0.25
RWS | < -0.25
PNTLRARGYGFV | < -0.25
HLFRVTDSRYVDFILSAVKV | < -0.25
RIGFLVTTRPKSRI | < -0.25
LKVDWL | < -0.25
SSTRVIQNAPILHTTRQKF | < -0.25
LMGGVNRSTV | < -0.25
DVELRLTAALGSLPRMCGVR | < -0.25
RVSGIRCI | < -0.25
IWRNRTA | < -0.25
KQRVIVRWRAY | < -0.25
LVEGPR | < -0.25
